# Some results were stated once for a whole list of compounds, not compound by compound.
# Legend:
# BJ cells = assay: Total cholesterol in cells, Amplex Red Cholesterol kit; assay type: cell-based, human; details: 10 μM, 2 h, relative to untreated cells
# BT20 cells = assay: as above; assay type: cell-based, human; details: 10 μM, 2 h, relative to untreated cells
smiles,measurement,setting,value
"CC1=CC(=O)c2c(O)cccc2C1=O [PL, 5-hydroxy-2-methyl-1,4-naphthoquinone, reference compound]",reduction in total cholesterol,BJ cells,3-6%
same,reduction in total cholesterol,BT20 cells,3-6%

# From patent publication US10485769B2, “Cholesteryl ester transfer protein (CETP) inhibition in the treatment of cancer” (KING ABDULLAH UNIVERSITY OF SCIENCE AND TECHNOLOGY, priority 2015, dated 2019)
